# Laboratory results taken from patent US11834467B2, “Substituted indazoles as hematopoietic progenitor kinase 1 (HPK1) inhibitors” (1ST Biotherapeutics, Inc., priority 2020, dated 2023).
# The chains behind the UniProt entries cited, without tags or fusion partners.
# UniProt Q92918, whole entry: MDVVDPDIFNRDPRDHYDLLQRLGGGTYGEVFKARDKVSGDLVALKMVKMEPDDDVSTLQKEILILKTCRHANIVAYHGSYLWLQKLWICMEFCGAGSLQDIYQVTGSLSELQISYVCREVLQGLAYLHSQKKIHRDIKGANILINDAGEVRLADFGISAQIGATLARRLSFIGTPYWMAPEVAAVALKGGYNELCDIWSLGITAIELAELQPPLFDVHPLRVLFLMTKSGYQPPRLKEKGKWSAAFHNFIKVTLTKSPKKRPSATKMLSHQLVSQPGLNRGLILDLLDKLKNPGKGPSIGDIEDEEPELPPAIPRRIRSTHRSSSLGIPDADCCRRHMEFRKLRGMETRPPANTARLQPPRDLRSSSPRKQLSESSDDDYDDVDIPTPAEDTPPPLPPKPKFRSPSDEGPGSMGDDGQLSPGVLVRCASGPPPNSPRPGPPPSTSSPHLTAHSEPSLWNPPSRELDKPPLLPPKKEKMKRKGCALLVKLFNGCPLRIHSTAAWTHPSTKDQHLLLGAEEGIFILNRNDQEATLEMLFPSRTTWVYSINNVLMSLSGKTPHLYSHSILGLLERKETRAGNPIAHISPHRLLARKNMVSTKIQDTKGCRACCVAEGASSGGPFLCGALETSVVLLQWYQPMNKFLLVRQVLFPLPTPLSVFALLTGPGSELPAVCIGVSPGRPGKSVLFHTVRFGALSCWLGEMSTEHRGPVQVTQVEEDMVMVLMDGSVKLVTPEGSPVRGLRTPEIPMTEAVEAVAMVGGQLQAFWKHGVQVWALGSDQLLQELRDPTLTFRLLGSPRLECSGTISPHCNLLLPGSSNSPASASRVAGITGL
# For at least one compound, name, drawing or mass did not settle the structure.
# Molecular target: recombinant human HPK1 (Homo sapiens (Human), UniProt Q92918)
# Assay: HPK1 kinase assay (ADP-Glo)
# Format: biochemical
# Parameters: key to the marks not given beside the values
# Conditions: In vitro activity against HPK1; 25 μM ATP, MBP substrate
structure (smiles),measurement,value
CC(C)=C(C)c1c(F)c(Cl)c(-c2cn3cc(NC(=O)[C@@H]4C[C@@H]4F)nc3cn2)c2cn[nH]c12 [Example 252],HPK1 IC50 (nM),++++
